Experimental data: PubChem BioAssay AID1053208 (Peter MacCallum Cancer Centre, 2014)
The whole screen tested about 17,000 reagents; this is a part drawn at random. 788 of all reagents (4.7%) were called active. 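Calls rest on z-score classes alone; an extra cut-off of viability at most 70% of control was not applied to them.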 A number with no mark means an inactive call. Not all columns of the deposit are shown.

Aim: 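Find knock-downs that sensitise mouse osteosarcoma cells to doxorubicin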 (primary screen)
System: mouse osteosarcoma cells, early-passage culture from an engineered mouse model of fibroblastic bone tumour
Reagent: siRNA pool against mouse genes, 40 nM
Time to read-out: about 120 h (48 h before drug, then 72 h with drug)
Conditions: doxorubicin 100 nM for 72 h, roughly 30-40% inhibitory dose
Measured: 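Luminescent ATP signal taken as viability with or without 100 nM doxorubicin for 72 h; mean of two wells set against non-targeting siRNA and turned into robust z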
Reading the numbers: viability z-score with doxorubicin: higher = more viable cells under doxorubicin; viability z-score without drug: higher = more viable cells with knock-down alone
Hit rule: 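a pool counts as active when its viability z-score with doxorubicin is -2 or below and its z-score without drug lies between -2 and 2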

Kcnk3 (potassium channel, subfamily K, member 3) → combined z-score class = no change with or without drug; viability z-score with doxorubicin = -0.67; viability z-score without drug = -0.84
Efcab8 (EF-hand calcium binding domain 8) → combined z-score class = no change with or without drug; viability z-score with doxorubicin = 1.12; viability z-score without drug = -0.17
Htra2 (HtrA serine peptidase 2) → combined z-score class = no change with or without drug; viability z-score with doxorubicin = 0.9; viability z-score without drug = 0
Bzw1 (basic leucine zipper and W2 domains 1) → combined z-score class = no change with or without drug; viability z-score with doxorubicin = -1.12; viability z-score without drug = 1.85
Fzd4 (frizzled class receptor 4) → combined z-score class = no change with or without drug; viability z-score with doxorubicin = -1.91; viability z-score without drug = 0.51
Ip6k1 (inositol hexaphosphate kinase 1) → combined z-score class = no change with or without drug; viability z-score with doxorubicin = 1.01; viability z-score without drug = 0.34
Vkorc1l1 (vitamin K epoxide reductase complex, subunit 1-like 1) → combined z-score class = no change with or without drug; viability z-score with doxorubicin = -1.57; viability z-score without drug = -0.17
Tpm2 (tropomyosin 2, beta) → combined z-score class = no change with or without drug; viability z-score with doxorubicin = 0; viability z-score without drug = -0.17
Ptpn11 (protein tyrosine phosphatase, non-receptor type 11) → combined z-score class = no change with or without drug; viability z-score with doxorubicin = -0.22; viability z-score without drug = -0.17
Rsbn1 (rosbin, round spermatid basic protein 1) → combined z-score class = no change with or without drug; viability z-score with doxorubicin = 0.45; viability z-score without drug = 1.52
Crbn (cereblon) → combined z-score class = no change with or without drug; viability z-score with doxorubicin = 1.57; viability z-score without drug = 1.52
Lrrc3 (leucine rich repeat containing 3) → combined z-score class = no change with or without drug; viability z-score with doxorubicin = -0.22; viability z-score without drug = -1.01
